In publication PMC9459403, “New inhibitors of cathepsin V impair tumor cell proliferation and elastin degradation and increase immune cell cytotoxicity” (Computational and Structural Biotechnology Journal, 2022):
No constants are given. Whether binding was seen depends on the method and setting. Some binding calls cover weakened binding; strength is not graded here.

Biological target: cystatin F (human (endogenous in U-937)) (UniProt O76096)
Test: non-reducing SDS-PAGE with western blot; whole-cell lysates of U-937 cells in RIPA buffer; cells treated for 6 h with DMSO (0.1 %), E-64d or compound 7 (10 or 20 uM); blot with anti-cystatin F

binding: binds
B1: cystatin F (protein, UniProt O76096 20-145)
chain: GPSPDTCSQDLNSRVKPGFPKTIKTNDPGVLQAARYSVEKFNNCTNDMFLFKESRITRALVQIVKGLKYMLEVEIGRTTCKKNQHLRLDDCDFQTNHTLKQTLSCYSEVWVVPWLQHFEVPVLRCH
modifications: multiple N-glycosylation forms (sites not given)
